# “Also recorded” adds a separate entry of the source. Part of at least one peptide drawing is inferred or uncertain, most often the ends. Ends that are not written are not given here.
# How the values were obtained:
# [1] = LEP(116–130) on blood glucose in female ob/ob mice; format: in vivo, mouse; details: 1 mg/day ip, 7 days
# [2] = Thermoregulation (cold stress 4° C.) in wild type (+/+) C57BLKS/J-m mice; format: in vivo, mouse
# [3] = 12 daily injections of LEP(116–130) in female db/db mice; format: in vivo, mouse; details: 1 mg/g body weight ip, 12 days
# [4] = target: T1, OB-Rb (Mus musculus, UniProt P48356); assay: SEAP reporter gene signal transduction assay in GT1–7 cells cotransfected with HRRE-SEAP and OB-Rb; format: cell-based; details: peptide 1 to 250 uM, 24 h
# T1 construct: full-length leptin receptor (OB-Rb), the receptor isoform predominantly expressed in the hypothalamus; expressed in transfected cells; host or cells: GT1-7
# T1 sequence (P48356 22-1162): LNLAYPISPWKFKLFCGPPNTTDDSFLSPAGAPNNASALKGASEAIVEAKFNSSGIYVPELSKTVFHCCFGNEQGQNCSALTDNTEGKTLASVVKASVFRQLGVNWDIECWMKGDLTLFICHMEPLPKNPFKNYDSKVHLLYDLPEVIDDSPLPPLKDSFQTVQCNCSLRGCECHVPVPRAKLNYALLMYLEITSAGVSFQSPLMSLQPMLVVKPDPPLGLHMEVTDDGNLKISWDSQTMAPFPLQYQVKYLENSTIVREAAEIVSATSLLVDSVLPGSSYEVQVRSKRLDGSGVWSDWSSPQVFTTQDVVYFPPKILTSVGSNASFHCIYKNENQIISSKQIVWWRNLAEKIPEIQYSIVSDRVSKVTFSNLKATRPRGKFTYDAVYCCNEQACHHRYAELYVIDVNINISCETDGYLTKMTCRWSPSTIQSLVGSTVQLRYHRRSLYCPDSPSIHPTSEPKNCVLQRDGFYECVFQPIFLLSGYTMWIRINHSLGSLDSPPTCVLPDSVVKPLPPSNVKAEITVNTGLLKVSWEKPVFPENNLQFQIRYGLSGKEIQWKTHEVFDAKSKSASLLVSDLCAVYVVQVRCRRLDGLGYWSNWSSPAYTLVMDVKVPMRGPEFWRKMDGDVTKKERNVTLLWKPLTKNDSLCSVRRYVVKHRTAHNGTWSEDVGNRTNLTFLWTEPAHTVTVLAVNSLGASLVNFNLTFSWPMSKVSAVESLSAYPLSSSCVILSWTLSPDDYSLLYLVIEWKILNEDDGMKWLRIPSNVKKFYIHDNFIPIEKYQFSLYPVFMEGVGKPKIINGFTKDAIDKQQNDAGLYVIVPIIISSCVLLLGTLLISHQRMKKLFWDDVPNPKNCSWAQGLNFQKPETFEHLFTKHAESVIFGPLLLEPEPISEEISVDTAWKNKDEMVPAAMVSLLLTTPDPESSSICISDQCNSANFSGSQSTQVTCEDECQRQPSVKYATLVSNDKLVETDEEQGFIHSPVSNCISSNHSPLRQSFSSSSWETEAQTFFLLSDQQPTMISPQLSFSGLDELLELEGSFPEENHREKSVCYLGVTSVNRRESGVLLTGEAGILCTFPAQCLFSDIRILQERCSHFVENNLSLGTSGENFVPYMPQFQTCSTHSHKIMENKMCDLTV
# Text: Initial experiments to determine the mechanism of action of LEP(116–130) utilized two highly sensitive in vitro bioassays routinely used to assess leptin binding and receptor activation (see e.g., White, et al., 1997. Proc. Natl. Acad. Sci. U.S.A. 94: 10657–10662). An alkaline phosphatase (“AP”)-leptin (“OB”) fusion protein (“AP-OB”) was used to measure inhibition of leptin binding in the absence or presence of recombinant mouse leptin (positive control) or peptide, by COS-7 cells transfected with the long (signaling) form of the mouse OB receptor (“OB-RL”). Signal transduction assays were done in GT1–7 cells cotransfected with AP reporter and OB-RL constructs. Secreted alkaline phosphatase (“SEAP”) activity in response to stimulation with mouse leptin or peptide was measured by chemiluminescence.
# Two days after transfection, the cells were stimulated with mouse leptin or leptin-related synthetic peptides for 24 hours. Growth media were harvested and SEAP activity was determined by chemiluminescence as described for AP-OB binding studies.
# COS-7 and GT1–7 cells were cultured in DMEM supplemented with 10% fetal bovine serum, and transfected by the lipofectamine method. […] Supernatants were collected and SEAP reporter activities were measured by chemiluminescence using the GreatEscApe alkaline phosphatase detection kit as described by the manufacturer (CLONTECH). […]
# [5] = 28-day ip study of body weight and food intake in female C57BL/6J ob/ob mice; format: in vivo, mouse; details: 1 mg per day ip, 28 days
# Text: In order to examine this possibility, six overlapping peptide amides, which corresponded to amino acid residues 106 to 167 of mouse leptin, were synthesized and their effects on body weight and food intake in female C57BL/6J ob/ob mice were subsequently assessed.
substance,measurement,setting,value
"SCSLPQTSGLQKPES-NH2 [LEP(116–130), Ser-Cys-Ser-Leu-Pro-Gln-Thr-Ser-Gly-Leu-Gln-Lys-Pro-Glu-Ser]",Lowering of blood glucose,[1],approximately 100 mg/dl
same,Effect on ability to thermoregulate,[2]; 4 or 7 days,had no effect on their ability to thermoregulate
same,Core temperature after cold stress,[2]; 4 h at 4° C.,28.2±0.4 °C
same,Core temperature before cold stress,[2]; start value,31.8±0.3 °C
same,Body weight gain and food intake vs vehicle,[3],"reduced body weight gain, but not food intake"
same,Stimulation of SEAP reporter activity,[4],unable to activate signal transduction by OB-Rb; also recorded: unable to stimulate SEAP activity above basal levels; also recorded: unable to induce SEAP activity
same,Weight gain and food intake vs vehicle,[5],significantly (P<0.01) restricted weight gain and food intake

# Source: patent US7208572B2, “Leptin-related peptides” (Albany Medical College, priority 1998, dated 2007)
